In all, about 53,000 sequences went through this assay and about 3,700 (7%) were called active.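 The calls were made as follows: active = gene knockdowns whose robust z-score for IL-1 alpha signal is at least 2 or at most -2, so actives lie on both sides; inactive = the rest.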 The list shows a part of the results.

A short description of this test: Components of the Cytosolic LPS Sensing Pathway: Gene Identification via Genome-wide siRNA Screen.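 Also: robust z of the log signal after scaling to non-targeting control siRNA wells of the plate.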 Particulars: RAW264.7 macrophages, IL-1a HTRF, actives lie on both sides, screened at 100 nM (by protocol), cells primed 5 h with Pam3CSK4 first. Put shortly:
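Read-out: IL-1a HTRF on supernatant, divided by plate negative-control median ×100, log-transformed and converted to robust z-score. Cells were RAW264.7 given 100 nM siRNA, Pam3CSK4-primed 5 hours, then LipidA-transfected 24 hour.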
Turning to GCCUUGAUACAGAACAUGATT against Btbd16, the z-score is inactive: -0.254.
For the sequence GGCACCUGAGGGAACUAAGTT against Atp1a2, the z-score is inactive: 1.48.
As for CGUAUCUGUUCAGCUGUACTT against Trappc9, the figure is inactive: -0.067; as for CCUCUCAGAUUUUCACAUATT against Zfp599, inactive: 1.36; as for GGACUUGCUAAGAGACCAATT against Cntn2, active: 4.74.
With GGAACCAUCUUCAACCAACTT against Eme1, the z-score was inactive: -1.44.
For the sequence GCCAACCAUCAGUUUAUACTT against Mboat1, the z-score was inactive: -0.31.
On to GGGAUUCUUUUUGUGGAAATT against Trim62, for which the z-score was inactive: 0.636.
As for GGAAUAAGGCGAGUUGGAATT against Serbp1, the figure is inactive: 0.493; as for GGAUUAGGAAUCACAGUAGTT against Fam78a, inactive: 0.675; as for GCCCGGAAUCUGUCUAAACTT against Btg2, inactive: 1.24.
For GAAAGUGUUCAAUAUACUGTT against Klra10, the z-score was inactive: 0.4.
As for CUACUUCACUUGCAUAACUTT against Dnajc2, the figure is inactive: -0.564; as for GUGUGCUUGAUGGAGACCATT against Riiad1, active: 2.25; as for GGAGCUGAGAACUAUUAGATT against Abr, inactive: -0.238.
As for GCAUGCAUGUAUUUUUUAGTT against Itpripl2, the figure is inactive: 0.913.
For the sequence GGACAAUGCUAAUGAGACCTT against Gcsam, the z-score is inactive: -0.176.
As for GCAUGAGGAUUGCACUAGGTT against Shbg, the figure is inactive: -0.742; as for GGAUGUCAAGGACACAGUATT against Olfr73, inactive: -1.04.
As for GCCGAUCUAAGAAAAACAATT against Tro, the figure is inactive: -0.401; as for GGGAUCAAAUUACACCUGUTT against Phox2a, inactive: -0.499.
Next, CCCACAUCGAUGGUUAGCUTT against Cep128: inactive: 0.977.
As to GGCUCCUCAAAGGUCAAGUTT against Mybpc3, the z-score is inactive: 0.986.
With CCACAUGAUCCUAACUUUGTT against Pqbp1, the z-score was inactive: -0.157.
In the case of GCAAUGUCUUCAAUGAUCATT against Ccdc158, the z-score is inactive: -0.251.
As for GGCUAUGAAUAAACUUUUCTT against Olfr1016, the figure is inactive: 0.429; as for GGGAUCACAGAUCUCUCUGTT against Cnksr3, inactive: 1.1.
Next, GGAAAGACUACAAGAAUUUTT against Syce2: inactive: 0.711; GGAGGUGCAUUAUAAGAAUTT against Fhl1: inactive: 0.686; CGAAGACGGUGACUACUAUTT against Bicd2: inactive: 1.67.
Next, GCCCUUUCGCCUAUGGUUUTT against Tedc1: inactive: 0.931; GCUAUUGAGUUAUCGUUGCTT against Stam2: inactive: 0.715; CGGGCAGUACUAUGAUUUGTT against Ppp1cc: active: 2.09.
Consider GGAGAAAUCGGAUGUGAAUTT against Smtnl1, for which the z-score is inactive: 0.214.
For GGUUUCGUCUUGAUAUCUATT against Trpc1, the z-score is inactive: -0.417.
Next, CCGGACUCAGGGUUAAAGUTT against Apoc4: inactive: 0.952; GGUUGUUUAUACCUGUGAUTT against Cfh: inactive: -0.292; GGGAAAUGACAAUUGAAAGTT against Tab3: inactive: 1.18.
As for CCUUAUUGACAGACGAGAGTT against Mob1b, the figure is inactive: 0.0129; as for GGCCGAUUCCAUUGUACAGTT against Fam177a, active: 3.54; as for GCUGUCGUUGAAGGCAUUGTT against Olfr317, inactive: -0.828.
Next, GGGACAUUUCUGUAUUGAGTT against Psg21: inactive: -0.446; GGUAAAAAAUGCUUUCAACTT against Olfr1008: inactive: 0.696.
Consider GGAGAAGUUUAAGGAGAUUTT against Dnajb5, for which the z-score is inactive: 1.54.
As for CGAUUACUUGGAAAACCAATT against Ifne, the figure is inactive: -1.21.
In the case of CGGACUAUUGGAGACCAACTT against Gpsm2, the z-score is active: 2.16.
As for GCCUUAAUACUCACCAGGGTT against Zscan2, the z-score was inactive: 0.702.
Next, GCAAGACUUGCUGAUAGAGTT against Cyp2j6: inactive: 1.44.
Next, GGGUUAAAUGGUUUUAACATT against E2f7: inactive: 0.505; CCCAUUAAAAAUCGUUCUGTT against Rcl1: inactive: 0.0355.
As for GCUGGCUUCUAUACUUCCCTT against Smgc, the figure is inactive: 0.0298; as for ACACUUGCAUCAUCUUUGCTT against Olfr740, inactive: 1.42.
With GGAAUUAUGCUUCCAUCAUTT against Mycl, the z-score is inactive: -0.225.
As for GGUCAACAUUAAAAUACUGTT against Map2k4, the figure is inactive: -0.0649.
Next, GGAGUACGAGGAGAUUAUGTT against Ubtf: inactive: 0.844.
With GCGGCAAUUCAAAUGAGUCTT against Rnf14, the z-score is inactive: 1.2.
Consider GGACUUCCUAUGAAGACAUTT against Neu4, for which the z-score was inactive: 0.374.
Consider GCUAUCAAUACCUCAGUUATT against Syt2, for which the z-score was inactive: 0.369.
Take GACCUGUUUUGUCUUUUGCTT against Ms4a4c: the z-score is inactive: 1.34.
Regarding CGGGAUAUCAUCUGAAUAATT against Disp1, the z-score is inactive: 0.19.
With CCAGCUUCAUGCGUUUAAATT against Stx16, the z-score is inactive: 1.4.
As for GGAAUCAUCUGAACACACATT against Ctcf, the figure is active: -2.18.
Next, GCCUUCUGGCAAGAAUCUUTT against Krtap9-3: inactive: 1.21.
Next, GGCUCCUCGGUUUAAAGGUTT against Usp45: inactive: -0.217.
For the sequence GGCCGAAGAAGGAGAAUUGTT against Gdap10, the z-score is inactive: 1.29.
Next, GCGACGGAAGUCUUUAUUATT against Nostrin: inactive: -0.163; GGAACUAUACCAAAGGCAATT against Cfap65: inactive: -0.198; GGAACGGAUACGGUUUCAUTT against Ybx1: inactive: 0.902.
In the case of GGGUCUUGAAUACAGAGAGTT against Qsox1, the z-score was inactive: -0.838.
Regarding GCGAGCGGCUGUCUAUUAATT against Nkiras2, the z-score is inactive: -0.277.
As for GGUCCUUUAAGGUCGAUCATT against Mllt3, the figure is inactive: -0.546; as for GGCAAGUUUCCUCUGCCUUTT against Gbgt1, inactive: -0.614; as for CGGCACACUAAGAAACGGATT against Odf3l1, inactive: 0.152.
On to GGUCAAGGCUGUCAAGUUGTT against Wdr45b, for which the z-score was inactive: -0.13.
As to GGCCCACAAGAAGAACAAGTT against Zfp423, the z-score was inactive: 1.29.
Next, CCUAAGACCCUCAGAAAACTT against Pcdhb7: inactive: 0.291; GGUGUAGCAACCAACCCAATT against Tpsg1: inactive: -1.88.
For GGUACAAGAUAUUGUGAAATT against Fgd3, the z-score was inactive: 0.0612.
Take GUGCUUCUGAUCUCCUACATT against Olfr223: the z-score was inactive: 1.
As for GCAGAAGACCGCUUAAACATT against Cspp1, the figure is inactive: 0.658; as for GGCAGAGCCAGAAAAAUUGTT against Slc30a1, inactive: 0.306.
Next, CCACUCACUUUCGUAUCUUTT against Fancm: inactive: -0.188.
As for GGCCAGCUACAAACUGCCUTT against Ydjc, the figure is inactive: 0.92; as for GGGCAAGGUGAAGCAUUAATT against Numa1, inactive: -1.68.
Take GGGAGCUUUCCAGUAACUGTT against Rfng: the z-score was inactive: 0.743.
Next, GGUUCAGUGCUUUGUGUUCTT against Il2rg: inactive: -0.541; GGAGCAGAUGUCAACAAAATT against Invs: inactive: -1.7; GCUGCUUGCAUGCGUUACUTT against Nacc2: inactive: 1.31.
In the case of GGUGCAGUUUUAUACCUAUTT against Rtn4rl1, the z-score was inactive: 0.719.
As for GGGAGAAAUACUCUUGUUATT against Atg4a, the figure is inactive: -0.634; as for GGACAGAGGACAAGCAGAATT against Ghrl, inactive: -0.532; as for UUUCCUGGAACUCGACAGGTT against Wdr34, inactive: 0.487.
Next, GGAGAAGUCCAUACGGAUCTT against Gpr18: inactive: 0.184; CCAUCCUGCUGUUUGCAUCTT against AB124611: inactive: -1.87.
As for GGCGCAUUCCUCUGUAGAATT against Ddc, the figure is inactive: -0.0597; as for GGAAACAAGGUCUCUGUUUTT against Mpzl2, inactive: -1.47; as for GGUGCUUCGUUUAUUACCATT against Lig3, inactive: 0.537.
As for GGAACAAACCAAGUUCACATT against Kcnip2, the z-score is inactive: -0.66.
Next, CCUCAUAAAUUCACUCUCCTT against Bpifa2: inactive: 0.984; “GGACUUAAGAAAGAUGUGUTT against A130010J15Rik”: inactive: -0.877; CCAAUCGGAAAUUUUACUGTT against Sh3yl1: inactive: 0.182.
In the case of GGGCGACUUUAGCUUUUAUTT against Pced1b, the z-score was active: 2.51.
Next, GGAGAAGAGGACAGAAGCCTT against Akt1s1: inactive: 0.757.
As for GGAGAGAAAAAAGUCUCUCTT against Olfr66, the z-score is active: 2.55.
As for GGAGCAGUCUCCUUUUUGUTT against Pcnp, the figure is active: 2.14; as for GGCAGAAAUACAAUCUUCGTT against Umodl1, inactive: 0.98.
Consider GGACAUCAAGUUCUUGCCATT against Hspa5, for which the z-score was inactive: -0.478.
Next, GGAGAUUCGAAGCCUUACUTT against Irak4: inactive: -1.76.
